Measured values: article PMC10439913
No constants are given. Whether binding was seen depends on the method and setting.

Sequences of proteins named here, by UniProt entry; tags and fusion partners are left off. A change or cut given only in a name is not applied to a line headed by its entry. Residues count along the entry.
UniProt P11717: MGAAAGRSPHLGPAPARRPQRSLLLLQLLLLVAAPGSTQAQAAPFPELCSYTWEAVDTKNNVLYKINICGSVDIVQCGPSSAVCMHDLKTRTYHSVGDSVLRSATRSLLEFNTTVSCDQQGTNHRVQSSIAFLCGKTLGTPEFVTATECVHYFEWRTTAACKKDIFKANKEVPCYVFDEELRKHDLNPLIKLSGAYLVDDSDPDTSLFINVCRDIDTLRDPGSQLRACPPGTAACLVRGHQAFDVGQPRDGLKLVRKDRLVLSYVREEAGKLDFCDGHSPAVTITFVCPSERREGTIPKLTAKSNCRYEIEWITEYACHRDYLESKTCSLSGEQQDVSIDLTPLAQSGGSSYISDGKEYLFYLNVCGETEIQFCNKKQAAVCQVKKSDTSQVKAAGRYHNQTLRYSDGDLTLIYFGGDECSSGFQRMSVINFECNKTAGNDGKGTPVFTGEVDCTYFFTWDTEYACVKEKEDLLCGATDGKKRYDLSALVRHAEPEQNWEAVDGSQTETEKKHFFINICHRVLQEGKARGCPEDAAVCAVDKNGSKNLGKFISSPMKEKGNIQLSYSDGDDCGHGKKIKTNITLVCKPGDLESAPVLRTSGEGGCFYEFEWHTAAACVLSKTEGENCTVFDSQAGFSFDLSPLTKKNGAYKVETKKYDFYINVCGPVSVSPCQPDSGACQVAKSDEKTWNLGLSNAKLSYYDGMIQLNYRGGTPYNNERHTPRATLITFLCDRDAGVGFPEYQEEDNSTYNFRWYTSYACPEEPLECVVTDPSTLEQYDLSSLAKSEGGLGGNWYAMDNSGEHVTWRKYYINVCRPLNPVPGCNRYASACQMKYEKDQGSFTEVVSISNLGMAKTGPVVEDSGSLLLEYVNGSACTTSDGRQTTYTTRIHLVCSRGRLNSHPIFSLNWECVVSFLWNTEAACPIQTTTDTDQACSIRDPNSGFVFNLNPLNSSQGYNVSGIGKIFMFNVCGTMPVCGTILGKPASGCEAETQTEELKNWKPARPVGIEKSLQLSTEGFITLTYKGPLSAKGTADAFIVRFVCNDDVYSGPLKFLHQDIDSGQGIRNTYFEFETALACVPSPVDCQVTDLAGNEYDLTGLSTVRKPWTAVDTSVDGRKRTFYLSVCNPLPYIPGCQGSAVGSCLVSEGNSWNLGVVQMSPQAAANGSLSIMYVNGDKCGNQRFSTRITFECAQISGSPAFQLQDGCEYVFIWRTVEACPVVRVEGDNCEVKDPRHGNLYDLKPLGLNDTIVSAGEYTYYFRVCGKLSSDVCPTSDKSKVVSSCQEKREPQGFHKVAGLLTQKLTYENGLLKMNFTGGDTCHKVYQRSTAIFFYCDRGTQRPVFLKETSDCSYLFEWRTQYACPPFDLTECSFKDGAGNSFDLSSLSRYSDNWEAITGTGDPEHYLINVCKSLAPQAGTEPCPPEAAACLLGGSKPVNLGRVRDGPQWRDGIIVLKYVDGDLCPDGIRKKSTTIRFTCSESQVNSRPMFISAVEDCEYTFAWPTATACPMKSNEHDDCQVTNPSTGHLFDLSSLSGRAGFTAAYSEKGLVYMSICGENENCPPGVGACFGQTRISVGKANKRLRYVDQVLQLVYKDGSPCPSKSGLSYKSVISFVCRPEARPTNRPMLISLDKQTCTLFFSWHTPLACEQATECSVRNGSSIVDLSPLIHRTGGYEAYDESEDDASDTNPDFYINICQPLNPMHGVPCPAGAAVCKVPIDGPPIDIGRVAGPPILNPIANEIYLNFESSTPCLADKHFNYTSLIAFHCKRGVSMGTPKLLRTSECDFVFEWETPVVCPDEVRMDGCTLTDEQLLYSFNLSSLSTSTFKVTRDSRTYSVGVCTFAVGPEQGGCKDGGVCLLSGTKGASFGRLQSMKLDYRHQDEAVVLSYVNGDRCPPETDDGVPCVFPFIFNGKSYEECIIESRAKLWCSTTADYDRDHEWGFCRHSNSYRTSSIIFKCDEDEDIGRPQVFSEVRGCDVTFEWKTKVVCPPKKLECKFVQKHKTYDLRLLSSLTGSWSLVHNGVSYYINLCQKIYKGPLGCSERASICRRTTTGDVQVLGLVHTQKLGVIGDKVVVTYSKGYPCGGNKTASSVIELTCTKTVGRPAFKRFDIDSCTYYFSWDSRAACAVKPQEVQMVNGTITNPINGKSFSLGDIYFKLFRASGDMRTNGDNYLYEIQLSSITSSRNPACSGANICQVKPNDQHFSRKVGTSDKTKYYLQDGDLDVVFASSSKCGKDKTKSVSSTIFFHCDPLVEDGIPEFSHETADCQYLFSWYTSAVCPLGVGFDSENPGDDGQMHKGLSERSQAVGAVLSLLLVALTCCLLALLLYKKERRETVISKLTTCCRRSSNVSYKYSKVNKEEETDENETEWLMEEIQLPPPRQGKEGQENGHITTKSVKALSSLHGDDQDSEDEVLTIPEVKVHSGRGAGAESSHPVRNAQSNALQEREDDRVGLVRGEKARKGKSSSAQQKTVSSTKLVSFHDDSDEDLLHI
UniProt P05019, residues 49-118: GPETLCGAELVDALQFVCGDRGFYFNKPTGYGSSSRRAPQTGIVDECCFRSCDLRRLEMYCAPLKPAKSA

Target: Domain-11 of human M6P/IGF2R (D11) (human) (UniProt P11717)
Test: radioligand binding; competition of cold ligand with [125I]-monoiodotyrosyl-Tyr2-IGF2 for immobilized D11 (as in ref. 33); affinity relative to IGF2; both purified

**Q.** How did the binding turn out when “IGF1 (from UniProt P05019 49-118) (ligand)” was run?
**A.** The binding was “no binding”.
